No constants are given. Whether binding was seen depends on the method and setting. In cells and extracts the contact can be indirect. For some assays here: A result given as binding can be weak or reduced; the word gives no strength. Sequences can lack the tags named with a protein.
T1: 14-3-3 OMEGA:YFP (Arabidopsis thaliana) (UniProt Q01525)
T1 sequence: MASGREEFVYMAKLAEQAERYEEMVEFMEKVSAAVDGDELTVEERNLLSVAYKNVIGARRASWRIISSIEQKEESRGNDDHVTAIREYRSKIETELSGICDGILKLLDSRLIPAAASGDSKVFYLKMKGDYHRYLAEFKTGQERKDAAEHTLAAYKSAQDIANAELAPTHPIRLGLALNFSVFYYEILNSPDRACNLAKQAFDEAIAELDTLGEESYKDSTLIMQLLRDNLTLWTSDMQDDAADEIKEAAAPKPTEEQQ

T2: 14-3-3 CHI:YFP (Arabidopsis thaliana) (UniProt P42643)
T2 sequence: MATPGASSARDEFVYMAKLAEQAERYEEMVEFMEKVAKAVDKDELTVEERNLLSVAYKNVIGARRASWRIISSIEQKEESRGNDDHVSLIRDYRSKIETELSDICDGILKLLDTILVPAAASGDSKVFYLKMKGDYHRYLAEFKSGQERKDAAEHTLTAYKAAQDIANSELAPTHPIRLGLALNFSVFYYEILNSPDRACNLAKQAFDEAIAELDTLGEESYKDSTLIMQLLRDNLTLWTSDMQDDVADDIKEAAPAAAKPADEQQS

T3: 14-3-3 KAPPA:YFP (Arabidopsis thaliana) (UniProt P48348)
T3 sequence: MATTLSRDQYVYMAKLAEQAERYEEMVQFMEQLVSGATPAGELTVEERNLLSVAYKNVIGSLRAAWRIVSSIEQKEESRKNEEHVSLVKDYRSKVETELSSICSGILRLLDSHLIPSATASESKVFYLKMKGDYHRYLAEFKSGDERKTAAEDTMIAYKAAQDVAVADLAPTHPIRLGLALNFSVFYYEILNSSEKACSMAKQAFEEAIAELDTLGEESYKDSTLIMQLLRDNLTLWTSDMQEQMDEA


What was measured:
Experiment in all cases: co-IP; YFP fusion as bait on GFP-Trap agarose beads from N. benthamiana leaves transiently co-expressing the proteins, extracted 48 h post-infiltration; lysis buffer as for MS; eluted by boiling in SDS-loading buffer; blots with anti-GFP and anti-HA
[1] = target: T1, 14-3-3 OMEGA:YFP (Arabidopsis thaliana)
[2] = target: T2, 14-3-3 CHI:YFP (Arabidopsis thaliana)
[3] = target: T3, 14-3-3 KAPPA:YFP (Arabidopsis thaliana)
[4] = target: THRUMIN1:YFP (Arabidopsis thaliana)

Row | binding [1] | binding [2] | binding [3] | binding [4] | Molecule
1 | binds | no binding | binds | – | THRUMIN1:HA (Arabidopsis thaliana)
2 | – | – | – | binds | 14-3-3 KAPPA:HA (protein, UniProt P48348 1-248) MATTLSRDQYVYMAKLAEQAERYEEMVQFMEQLVSGATPAGELTVEERNLLSVAYKNVIGSLRAAWRIVSSIEQKEESRKNEEHVSLVKDYRSKVETELSSICSGILRLLDSHLIPSATASESKVFYLKMKGDYHRYLAEFKSGDERKTAAEDTMIAYKAAQDVAVADLAPTHPIRLGLALNFSVFYYEILNSSEKACSMAKQAFEEAIAELDTLGEESYKDSTLIMQLLRDNLTLWTSDMQEQMDEA
3 | – | – | – | binds | 14-3-3 OMEGA (prey of the Co-IP of Figure 8D) (protein, UniProt Q01525 1-259) MASGREEFVYMAKLAEQAERYEEMVEFMEKVSAAVDGDELTVEERNLLSVAYKNVIGARRASWRIISSIEQKEESRGNDDHVTAIREYRSKIETELSGICDGILKLLDSRLIPAAASGDSKVFYLKMKGDYHRYLAEFKTGQERKDAAEHTLAAYKSAQDIANAELAPTHPIRLGLALNFSVFYYEILNSPDRACNLAKQAFDEAIAELDTLGEESYKDSTLIMQLLRDNLTLWTSDMQDDAADEIKEAAAPKPTEEQQ

From PMC8566215
